From patent publication US20170043031A1 (PIERRE FABRE MEDICAMENT, priority 2014, published 2017)

Assay: general procedure: solution-phase peptide synthesis; DEPC/DIEA; HATU/DIEA
Conditions: trifluoroacetic acid; for conjugation yield: conjugation step
[1] = late stage modification step, 210 nm

Substance | step yield (coupling step) [%] | conjugation yield [%] | also measured
9H-fluoren-9-ylmethyl N-[(1S)-1-[[(3R,4S,5S)-3-methoxy-1-[(2S)-2-[(1R,2R)-1-methoxy-2-methyl-2-[[(1S)-2-phenyl-1-(1,3-thiazol-2-yl)ethyl]carbamoyl]ethyl]pyrrolidin-1-yl]-5-methyl-1-oxoheptan-4-yl](methyl) carbamoyl]-2-methylpropyl]carbamate | 71 | – | –
(S)—N-((3R,4S,5S)-3-methoxy-1-((S)-2-((1R,2R)-1-methoxy-2-methyl-3-oxo-3-(((S)-2-phenyl-1-(thiazol-2-yl)ethyl)amino)propyl)pyrrolidin-1-yl)-5-methyl-1-oxoheptan-4-yl)-N,3-dimethyl-2-((S)-3-methyl-2-(methyl(4-(methylamino)phenethyl)amino) butanamido)butanam | – | – | final HPLC purity (late stage modification step, 254 nm): 93.68%; step yield (late stage modification step): 39%
((2R,3R)-3-((S)-1-((3R,4S,5S)-4-((S)-2-((S)-2-((4-((((4-((S)-2-((S)-2-(6-(2,5-dioxo-2,5-dihydro-1H-pyrrol-1-yl)hexanamido)-3-methylbutanamido)-5-ureidopentanamido)benzyl)oxy)carbonyl)(methyl)amino)phenethyl)(methyl)amino)-3-methylbutanamido)-N,3-dimethylbutanamido)-3-methoxy-5-methylheptanoyl) pyrrolidin-2-yl)-3-methoxy-2-methylpropanoyl)-L-phenylalanine, 2,2,2-trifluoroacetate | – | 35 | –
(S)-2-((S)-2-((3-aminobenzyl)(methyl)amino)-3-methylbutanamido)-N-((3R,4S,5S)-3-methoxy-1-((S)-2-((1R,2R)-1-methoxy-2-methyl-3-oxo-3-(((S)-2-phenyl-1-(thiazol-2-yl)ethyl)amino)propyl)pyrrolidin-1-yl)-5-methyl-1-oxoheptan-4-yl)-N,3-dimethylbutanamide, trifluoro | – | – | final HPLC purity [1]: 95.6%; step yield (late stage modification step): 10%
methyl ((2R,3R)-3-((S)-1-((3R,4S,5S)-4-((S)-2-((S)-2-((4-((((4-((S)-2-((S)-2-(6-(2,5-dioxo-2,5-dihydro-1H-pyrrol-1-yl)hexanamido)-3-methylbutanamido)-5-ureidopentanamido)benzyl)oxy)carbonyl)(methyl)amino)phenethyl)(methyl) amino)-3-methylbutanamido)-N,3-dimethylbutanamido)-3-methoxy-5-methylheptanoyl)pyrrolidin-2-yl)-3-methoxy-2-methylpropanoyl)-L-phenylalaninate 2,2,2-trifluoroacetate | – | 70 | –
tert-butyl (3-((3S,6S,9S,10R)-9-((S)-sec-butyl)-3,6-diisopropyl-10-(2-((S)-2-((1R,2R)-1-methoxy-2-methyl-3-oxo-3-(((S)-2-phenyl-1-(thiazol-2-yl)ethyl)amino)propyl)pyrrolidin-1-yl)-2-oxoethyl)-2,8-dimethyl-4,7-dioxo-11-oxa-2,5,8-triazadodecyl)phenyl) carbamate | 67 | – | –
methyl (S)-2-((2R,3R)-3-((S)-1-((3R,4S,5S)-4-((S)-2-((((9H-fluoren-9-yl)methoxy)carbonyl)amino)-N,3-dimethylbutanamido)-3-methoxy-5-methylheptanoyl)pyrrolidin-2-yl)-3-methoxy-2-methylpropanamido)-3-phenylpropanoate | 34 | – | –
((2R,3R)-3-((S)-1-((3R,4S,5S)-4-((S)-2-((S)-2-((4-((S)-2-((S)-2-(6-(2,5-dioxo-2,5-dihydro-1H-pyrrol-1-yl)hexanamido)-3-methylbutanamido)-5-ureidopentanamido)phenethyl)(methyl)amino)-3-methylbutanamido)-N,3-dimethylbutanamido)-3-methoxy-5-methylheptanoyl)pyrrolidin-2-yl)-3-methoxy-2-methylpropanoyl)-L-phenylalanine 2,2,2-trifluoroacetate | – | 36 | –
N—((S)-1-(((S)-1-((4-((3R,4S,7S,1S)-4-((S)-sec-butyl)-7,10-diisopropyl-3-(2-((S)-2-((1R,2R)-1-methoxy-2-methyl-3-oxo-3-(((S)-2-phenyl-1-(thiazol-2-yl)ethyl)amino)propyl)pyrrolidin-1-yl)-2-oxoethyl)-5,11-dimethyl-6,9-dioxo-2-oxa-5,8,11-triazatridecan-13-yl)phenyl)amino)-1-oxo-5-ureidopentan-2-yl)amino)-3-methyl-1-oxobutan-2-yl)-6-(2,5-dioxo-2,5-dihydro-1H-pyrrol-1-yl)hexanamide 2,2,2-trifluoroacetate | – | 70 | –
methyl ((2R,3R)-3-((S)-1-((3R,4S,55)-4-((S)-2-((S)-2-((3-(6-(2,5-dioxo-2,5-dihydro-1H-pyrrol-1-yl)hexanamido)benzyl)(methyl)amino)-3-methylbutanamido)-N,3-dimethylbutanamido)-3-methoxy-5-methylheptanoyl)pyrrolidin-2-yl)-3-methoxy-2-methylpropanoyl)-L-phenylalaninate 2,2,2-trifluoroacetate | – | 50 | –
(S)-2-((S)-2-(((2-aminopyridin-4-yl)methyl)(methyl)amino)-3-methylbutanamido)-N-((3R,4S,5S)-1-((S)-2-((1R,2R)-3-(((1 S,2R)-1-hydroxy-1-phenylpropan-2-yl)amino)-1-methoxy-2-methyl-3-oxopropyl)pyrrolidin-1-yl)-3-methoxy-5-methyl-1-oxoheptan-4-yl)-N,3-dimethylbutanamide, trifluoroacetic acid | – | – | final HPLC purity [1]: 99.2%; step yield (late stage modification step): 6%
methyl (S)-2-((2R,3R)-3-((S)-1-((3R,4S,5S)-4-((S)—N,3-dimethyl-2-((S)-3-methyl-2-(methyl(4-(methylamino)phenethyl)amino)butanamido)butanamido)-3-methoxy-5-methylheptanoyl)pyrrolidin-2-yl)-3-methoxy-2-methylpropanamido)-3-phenylpropanoate, trifluoroacetic acid | 7 | – | final HPLC purity (coupling step, 254 nm): 90.6%
